PubChem BioAssay AID1259254 | NCATS – 2017
The deposit covers about 59,000 reagents; shown is a random part of them. About 1,550 of them (2.6%) count as active. 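G2 share is only a proxy for re-replication; each gene was hit by three separate siRNAs, and active genes were retested.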 Reagents against one gene are numbered here. Further read-outs or replicates are left out here. Not given: the amount of reagent.

Screen: 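Genome-wide screen for genes that prevent DNA re-replication in cancer cells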 (primary screen)
System: human HCT116 colorectal cancer cells
Reagent: single siRNA against human genes
Timing: 3 days
Read-out: 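Imaged Hoechst DNA stain sorts each cell into a cycle phase by DNA amount; per plate, G2 fraction set to 0% for non-targeting and 100% for GMNN siRNA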
Reading the numbers: G2 robust z-score: higher = more G2 cells, more excess DNA replication
Active means: 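An siRNA counts as active if its G2 robust z-score lies at least 5 MADs above the screen median; here such calls match roughly 38% of GMNN control or more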

G2 robust z-score, by gene symbol and reagent
ZFP69 (ZFP69 zinc finger protein): #1 -0.588 inactive; #2 -0.237 inactive; #3 -1.07 inactive
ERGIC1 (endoplasmic reticulum-golgi intermediate compartment 1): #1 1.34 inactive; #2 -0.465 inactive; #3 -0.5 inactive
KIFC2 (kinesin family member C2): #1 1.74 inactive; #2 -1.27 inactive; #3 -0.684 inactive
SLC12A4: #1 -0.588 inactive; #2 -0.0464 inactive; #3 1.64 inactive
NEUROD6 (neuronal differentiation 6): #1 -1.14 inactive; #2 2.41 inactive; #3 -0.475 inactive
ATP4B (ATPase H+/K+ transporting subunit beta): #1 -0.18 inactive; #2 -0.0264 inactive; #3 0.155 inactive
PLEKHH2 (pleckstrin homology, MyTH4 and FERM domain containing H2): #1 -0.559 inactive; #2 1.54 inactive; #3 -0.59 inactive
GABRA1 (gamma-aminobutyric acid type A receptor subunit alpha1): #1 0.21 inactive; #2 -0.352 inactive; #3 1.91 inactive
FBXO30 (F-box protein 30): #1 2.99 inactive; #2 0.175 inactive; #3 -0.687 inactive
DSCR10 (Down syndrome critical region 10): #1 -0.191 inactive; #2 -0.344 inactive; #3 -0.694 inactive
UBE2D3 (ubiquitin conjugating enzyme E2 D3): #1 0.253 inactive; #2 0.603 inactive; #3 -0.516 inactive
SLC26A1: #1 3.06 inactive; #2 4.19 inactive; #3 2.33 inactive
LAMB1 (laminin subunit beta 1): #1 0.521 inactive; #2 0.482 inactive; #3 1.53 inactive
CAPZBP1 (CAPZB pseudogene 1): #1 -0.572 inactive; #2 0.552 inactive; #3 -1.21 inactive

Ordered by “G2 robust z-score” (lowest first): some entries from above
gene symbol	reagent	G2 robust z-score	Call
PLEKHH2 (pleckstrin homology, MyTH4 and FERM domain containing H2)	3	-0.59	inactive
PLEKHH2 (pleckstrin homology, MyTH4 and FERM domain containing H2)	1	-0.559	inactive
GABRA1 (gamma-aminobutyric acid type A receptor subunit alpha1)	2	-0.352	inactive
ATP4B (ATPase H+/K+ transporting subunit beta)	1	-0.18	inactive
ATP4B (ATPase H+/K+ transporting subunit beta)	2	-0.0264	inactive
ATP4B (ATPase H+/K+ transporting subunit beta)	3	0.155	inactive
GABRA1 (gamma-aminobutyric acid type A receptor subunit alpha1)	1	0.21	inactive
PLEKHH2 (pleckstrin homology, MyTH4 and FERM domain containing H2)	2	1.54	inactive
GABRA1 (gamma-aminobutyric acid type A receptor subunit alpha1)	3	1.91	inactive

More records follow.
G2 robust z-score, by gene symbol and reagent
LARP6 (La ribonucleoprotein 6, translational regulator): #1 -0.885 inactive; #2 -1.31 inactive; #3 1.65 inactive
TSPAN5 (tetraspanin 5): #1 6.76 active; #2 0.27 inactive; #3 0.654 inactive
GRIA1 (glutamate ionotropic receptor AMPA type subunit 1): #1 6.01 active; #2 -0.476 inactive; #3 -1.15 inactive
LHX1 (LIM homeobox 1): #1 -0.883 inactive; #2 0.824 inactive; #3 0.91 inactive
FPR3 (formyl peptide receptor 3): #1 -0.278 inactive; #2 -0.889 inactive; #3 3.36 inactive
ULBP2 (UL16 binding protein 2): #1 -0.433 inactive; #2 0.436 inactive; #3 1.29 inactive
NIPSNAP2 (nipsnap homolog 2): #1 2.95 inactive; #2 1.31 inactive; #3 1.02 inactive
UFC1 (ubiquitin-fold modifier conjugating enzyme 1): #1 2.24 inactive; #2 -0.101 inactive; #3 1.29 inactive
NTN4 (netrin 4): #1 -0.699 inactive; #2 2.23 inactive; #3 -1.04 inactive
